The full ranking holds about 33,000 sequences; the median of “E-score (-0.5 to 0.5)” is about -8e-05, and the highest 2% start at about 0.23. Some of the results follow.
These sequences were tested against T1, Nrg2 (UniProt P38082) (assay: PBM E-score (8-mer binding enrichment) (E-score (-0.5 to 0.5)); higher = stronger / more preferred TF binding). Settings: protein concentration: 100 nM; construct: GST-full length.
T1 sequence: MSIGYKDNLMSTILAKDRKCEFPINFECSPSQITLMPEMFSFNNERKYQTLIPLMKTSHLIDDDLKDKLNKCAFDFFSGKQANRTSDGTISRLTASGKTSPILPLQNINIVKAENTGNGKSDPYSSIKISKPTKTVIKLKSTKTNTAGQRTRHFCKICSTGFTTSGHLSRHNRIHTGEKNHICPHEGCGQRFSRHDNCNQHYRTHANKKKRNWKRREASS
Description: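 Universal 'all 10-mer' protein binding microarrays (Agilent AMADID 015681) probed with GST-tagged S. cerevisiae TFs (full-length or DBD) made by in vitro transcription/translation (PURExpress), about 100-200 nM. Bound TF was detected with fluorescent anti-GST. Each ungapped 8-mer (which stands for itself and its reverse complement) is scored by the PBM enrichment score (E-score), a modified Wilcoxon-Mann-Whitney statistic from -0.5 to +0.5, computed with the Universal PBM Analysis Suite. Scale: above 0.35 generally sequence-specific binding.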

Row | Sequence | PBM E-score
1 | GAAGTCTC | -0.146
2 | CATGTTAA | 0.0941
3 | GAGGAATA | 0.0393
4 | ATTAGGCC | 0.0427
5 | ATCCCGAG | 0.0466
6 | GGGCGACA | -0.132
7 | AATCATCG | 0.046
8 | GCCGCGAC | -0.0801
9 | TAGAATGA | 0.0589
10 | GTACTACA | 0.191
11 | ACTTTTTG | 0.038
12 | ACCAGTCC | -0.0442
13 | AGCTACTA | 0.0519
14 | CACTTGAC | -0.0154
15 | GACTTATC | -0.223
16 | AAGAGCCG | -0.151
17 | GGGCACGA | -0.0933
18 | CGGTCCAC | -0.222
19 | GCCCCGGC | -0.258
20 | AGAGACGC | -0.00585
21 | CGGTTGAA | 0.101
22 | GCTATGCA | -0.0732
23 | AGTGGAGG | 0.0258
24 | ACATGCGG | -0.058
25 | ATCGGAGG | -0.25

Row | Sequence | PBM E-score
26 | ATTCTCAC | 0.0944
27 | ACTGTAAT | 0.0526
28 | ACGCCGTG | 0.0109
29 | GTACAGGA | -0.0267
30 | ATCTACTC | 0.0316
31 | CTAGAGCA | 0.0125
32 | TAACGTTA | -0.0867
33 | ATTGATCC | -0.024
34 | AGAACTAG | 0.0365
35 | TCGCGCGA | 0.138
36 | AGATCCAA | 0.0871
37 | CGAATACC | 0.0757
38 | CAAGTGCG | 0.0578
39 | GGGTCGAA | -0.0102
40 | AGATCTCC | 0.00029
41 | AGGCCGGG | -0.266
42 | ATACCGGA | -0.222
43 | CGCAGAAG | 0.132
44 | GCCTTGTA | -0.048
45 | CTATCGCA | 0.122
46 | CGTAGGTA | -0.0076
47 | CCCAATCA | 0.144
48 | ATGTGACA | 0.115
49 | ATAGATTG | 0.0917
50 | CGCCAAAG | 0.0237

Row | Sequence | PBM E-score
51 | GAGCCACA | -0.169
52 | ACGACTGC | -0.173
53 | AAACTCAC | 0.023
54 | CTGTGCTA | 0.0335
55 | CCCTCGCC | -0.0464
56 | CATGCCTA | -0.0738
57 | TACAAACA | 0.243
58 | AACCCTGA | 0.385
59 | TTGCCAAA | 0.0604
60 | CACGCGCG | 0.0259
61 | CTTATGCC | 0.0717
62 | CCGGCACC | 0.134
63 | GCAAGGGC | -0.107
64 | ATCGATTG | 0.0761
65 | AACGCCAG | 0.123
66 | ACCTGTAG | -0.125
67 | CATCCCGG | -0.0163
68 | ATAAGAGG | 0.0354
69 | ACAAGAAG | 0.176
70 | ATGTGCCG | -0.197
71 | GTGGCAGA | -0.276
72 | CGAAATTA | 0.104
73 | CCGCTTAC | -0.227
74 | GAACATGA | 0.0272
75 | CTACCTGC | 0.0377

Row | Sequence | PBM E-score
76 | CACGACCA | -0.0449
77 | ATCCGAGA | 0.163
78 | AGGTATAG | 0.0175
79 | AGCCATCC | 0.0327
80 | CTGAACAC | 0.186
81 | GCGTAGGA | 0.00188
82 | CACAGCCA | -0.0609
83 | AGCTGGGA | -0.0126
84 | CGCCCAGC | 0.156
85 | GAGTACCC | 0.0677
86 | AGGCCGTC | -0.0983
87 | ATATTAAG | 0.0738
88 | GCAACGCC | -0.0162
89 | AAATGACC | 0.0482
90 | CACTGGTC | -0.201
91 | AACGGCCA | -0.0704
92 | AAAACTTT | 0.0137
93 | ACACGCGT | 0.00123
94 | CGGTTACC | -0.076
95 | GCGTCAAA | 0.102
96 | AGTTGCTC | -0.121
97 | CGAAACGC | -0.221
98 | GAATGCCA | -0.0175
99 | AGTAGCGG | -0.0087
100 | ATCCTTTC | -0.0665

A second format for some results above.
CTATCGCA
  PBM E-score: 0.122
CGTAGGTA
  PBM E-score: -0.0076
CCCAATCA
  PBM E-score: 0.144

Retrieved one by one from the list above, 2 records:
Row | Sequence | PBM E-score
100 | ATCCTTTC | -0.0665
84 | CGCCCAGC | 0.156

Following part:

Row | Sequence | PBM E-score
101 | ACTGTCGA | 0.074
102 | GACGTCGA | 0.0857
103 | ACAGACAG | 0.255
104 | ACCAGTGG | -0.0539
105 | GGCCTAAA | -0.127
106 | ACAGTGGT | 0.0526
107 | CCGATCTA | -0.0703
108 | GGCGGGGA | 0.249
109 | ACAGGCAT | -0.00285
110 | AGGATCGA | -0.0712
111 | AGCCGGAG | 0.023
112 | CCTGAACC | 0.0425
113 | GTATACAC | 0.0161
114 | CCATGTCA | -0.0662
115 | GGCAGCCC | -0.04
116 | GAAGGCAC | 0.0779
117 | AGCAAGCG | 0.00314
118 | GGGGACAC | -0.0864
119 | CTTAGTGC | -0.0326
120 | CCTTGGAC | -0.165
121 | GTTGCGCA | 0.0239
122 | TGTCCAAA | 0.0793
123 | ATTCCGTC | -0.022
124 | AAGACCTT | -0.0919
125 | GTGTCCGA | -0.0516

Row | Sequence | PBM E-score
126 | AACCCACT | 0.225
127 | GGGGGTGA | -0.409
128 | CACCGGGC | -0.221
129 | AGGAGGAT | -0.134
130 | AAGCCTAC | -0.128
131 | CCAGCGAG | -0.0165
132 | GCTTGTCC | 0.0221
133 | ACCAGCCT | 0.0416
134 | ATCAATTC | 0.107
135 | GTTAAAAA | -0.15
136 | CCCGCTTC | -0.125
137 | CTTGGAAA | 0.0285
138 | AGACCGAC | 0.124
139 | GCCACCGA | -0.137
140 | ACGTTATC | 0.034
141 | AGCACTGA | -0.0142
142 | ATCCTGAC | 0.178
143 | AACAGCCT | -0.00931
144 | CCCAGGGA | 0.124
145 | TGGAGTAA | 0.12
146 | CGAAATCC | 0.199
147 | CGCTAACA | -0.0645
148 | ACATATGC | -0.33
149 | CGAGTATA | 0.107
150 | ATATTTTA | 0.0171

Exported with tabs: entries from further up
Row	Sequence	PBM E-score
58	AACCCTGA	0.385
59	TTGCCAAA	0.0604
60	CACGCGCG	0.0259

The list continues:

Row | Sequence | PBM E-score
151 | TCTTGCAA | 0.196
152 | ATCAGTAG | -0.029
153 | ATCCGACC | 0.0125
154 | AGGTAAAG | 0.0795
155 | CATGGACC | -0.0369
156 | ACAGTTGA | 0.0619
157 | ACCCCATC | 0.0787
158 | AATTACTG | 0.111
159 | ACTGCGCA | 0.134
160 | CCCATAAC | 0.0318
161 | AGTTTATA | 0.173
162 | ATGGCGTC | -0.0451
163 | AAACGTGC | -0.113
164 | CGAATTAA | 0.175
165 | CCATGTCG | 0.0593
166 | AGCTTCCG | -0.0886
167 | CCGGACCA | -0.185
168 | ACAAGCCC | -0.113
169 | AAGTATAT | 0.12
170 | ACTTGCGA | 0.115
171 | CCCCCGTA | -0.372
172 | GTCGGGAA | -0.0167

Source: the supplement of paper PMC3334620
